Earlier results in patent US20020106657A1, “Genetic test to determine non-responsiveness to statin drug treatment” (priority 1999, published 2002).
Where two headings read alike, the source gives them in different places. At least one compound was matched to its structure with a doubt left.

Experiments:
[1] = system: subjects with the LPL N9 / D9 polymorphism; conditions: subjects with LPL N9 vs LPL D9 polymorphism; cited from earlier work
[2] = system: subjects with the CETP B1B1 / B2B2 genotype; conditions: cited from earlier work

## CC[C@H](C)C(=O)O[C@H]1C[C@H](O)C=C2C=C[C@H](C)[C@H](CC[C@@H](O)C[C@@H](O)CC(=O)O)[C@H]21 [pravastatin]
[1]
  lowering of the LDL-cholesterol level: did not lower the LDL-cholesterol level in subjects with the LPL N9 polymorphism to the same extent
[2]; subjects with the CETP B1B1 genotype
  progression of atherosclerosis: slowed the progression of atherosclerosis
[2]; subjects with the CETP B2B2 genotype
  progression of atherosclerosis: but not in those with the CETP B2B2 genotype
